Reference: paper PMC11147762
No constants are given. Whether binding was seen depends on the method and setting. In cells and extracts the contact can be indirect. Some binding calls cover weakened binding; strength is not graded here.

Protein sequences, listed by entry. Tags and fused reporters are not part of them.
UniProt Q86U44: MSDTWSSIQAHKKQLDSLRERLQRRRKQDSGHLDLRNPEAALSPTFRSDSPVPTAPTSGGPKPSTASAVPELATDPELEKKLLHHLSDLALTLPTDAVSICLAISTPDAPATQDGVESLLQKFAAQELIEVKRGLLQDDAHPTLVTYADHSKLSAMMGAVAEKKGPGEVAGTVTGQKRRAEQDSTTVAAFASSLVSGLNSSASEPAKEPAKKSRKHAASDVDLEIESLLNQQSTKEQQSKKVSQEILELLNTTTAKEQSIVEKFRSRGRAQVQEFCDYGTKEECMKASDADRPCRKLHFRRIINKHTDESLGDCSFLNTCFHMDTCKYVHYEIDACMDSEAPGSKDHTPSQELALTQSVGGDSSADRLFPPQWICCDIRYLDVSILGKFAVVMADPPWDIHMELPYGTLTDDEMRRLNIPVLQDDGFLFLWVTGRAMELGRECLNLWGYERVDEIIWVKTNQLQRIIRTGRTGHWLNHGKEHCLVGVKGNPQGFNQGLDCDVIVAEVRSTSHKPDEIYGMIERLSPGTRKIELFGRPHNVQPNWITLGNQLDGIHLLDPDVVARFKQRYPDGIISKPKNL

T1: DDX41-Y259C (human (endogenous in K562)) (UniProt Q9UJV9)
T1 sequence: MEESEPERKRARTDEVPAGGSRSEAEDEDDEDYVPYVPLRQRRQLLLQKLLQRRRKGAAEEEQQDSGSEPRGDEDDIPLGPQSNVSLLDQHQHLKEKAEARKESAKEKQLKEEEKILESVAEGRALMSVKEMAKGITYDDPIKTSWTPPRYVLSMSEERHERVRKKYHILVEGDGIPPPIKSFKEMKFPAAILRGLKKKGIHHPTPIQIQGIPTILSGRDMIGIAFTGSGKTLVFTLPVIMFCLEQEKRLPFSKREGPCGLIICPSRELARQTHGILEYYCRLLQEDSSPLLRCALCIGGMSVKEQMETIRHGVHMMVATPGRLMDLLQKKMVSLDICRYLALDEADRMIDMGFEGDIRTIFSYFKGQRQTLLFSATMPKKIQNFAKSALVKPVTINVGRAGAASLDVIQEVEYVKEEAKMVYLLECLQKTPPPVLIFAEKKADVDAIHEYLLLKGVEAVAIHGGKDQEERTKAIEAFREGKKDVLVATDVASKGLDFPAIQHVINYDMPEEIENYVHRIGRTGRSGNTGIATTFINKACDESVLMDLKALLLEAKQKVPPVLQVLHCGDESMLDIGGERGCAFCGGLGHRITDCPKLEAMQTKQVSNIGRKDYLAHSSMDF

B1: METTL14 (protein, UniProt Q9HCE5 1-456)
chain: MDSRLQEIRERQKLRRQLLAQQLGAESADSIGAVLNSKDEQREIAETRETCRASYDTSAPNAKRKYLDEGETDEDKMEEYKDELEMQQDEENLPYEEEIYKDSSTFLKGTQSLNPHNDYCQHFVDTGHRPQNFIRDVGLADRFEEYPKLRELIRLKDELIAKSNTPPMYLQADIEAFDIRELTPKFDVILLEPPLEEYYRETGITANEKCWTWDDIMKLEIDEIAAPRSFIFLWCGSGEGLDLGRVCLRKWGYRRCEDICWIKTNKNNPGKTKTLDPKAVFQRTKEHCLMGIKGTVKRSTDGDFIHANVDIDLIITEEPEIGNIEKPVEIFHIIEHFCLGRRRLHLFGRDSTIRPGWLTVGPTLTNSNYNAETYASYFSAPNSYLTGCTEEIERLRPKSPPPKSKSDRGGGAPRGGGRGGTSAGRGRERNRSNFRGERGGFRGGRGGAHRGGFPPR

Assays:
[1] = molecular target: DEAD box helicase 41 (DDX41) (human (endogenous in K562)) (UniProt Q9UJV9); test: co-IP; DDX41 WT, KO and KI (R525H, Y259C) K562 cells; immunoprecipitation with rabbit IgG or indicated antibodies, Western blotting (Fig. 5f-k, Supplementary Fig. S8)
[2] = molecular target: T1, DDX41-Y259C (human (endogenous in K562)); test: as above
[3] = molecular target: DDX41-R525H (human (endogenous in K562)) (UniProt Q9UJV9); test: as above
[4] = molecular target: DEAD box helicase 41 (DDX41) (human (endogenous in K562)) (UniProt Q9UJV9); test: co-IP; immunoprecipitation with control IgG or indicated antibodies, Western blotting (Fig. 5b-e); cells not given

binding [1] | binding [2] | binding [3] | binding [4] | Molecule
binds | binds | binds | binds | METTL3 (from UniProt Q86U44 1-580)
 |  |  | binds | B1
